Experimental findings from publication PMC4367295 are described below.

The exact form of at least one protein or probe is not confirmed. At least one verdict rests on a figure or table, not on a statement of the authors.

The data set concerns hMCM2-7 complex (MCM2, MCM3, MCM4, MCM5, MCM6, MCM7) (Homo sapiens). The experiment in a line: negative-stain single-particle EM (23 A), conformational change on DNA binding. To be noted: 4 mM ATP, 10 mM Mg acetate, 60 nM DNA, EM binding: 50 mM HEPES pH 7.5, 2 mM DTT, 50 ug/ml BSA, 10 mM magnesium acetate, 60 min at 37 C, hMCM 8 ug, recombinant protein.

For “CCTGGCGTTACCCAACTTAATCGCCTTGCAGCACATCCCCCTTTCTTTTTTTTTTTTTTTTTTTTTTTTTTTTTTTTTTTTTTTTTTTTTTTTTTTTTTTTTTTT / TTTTTTTTTTTTTTTTTTTTTTTTTTTTTTTTTTTGAAAGGGGGATGTGCTGCAAGGCGATTAAGTTGGGTAACGCCAGG [HF150/HR80 forked DNA]”, the binding result was “binds”.
